Record: PubChem BioAssay AID1224826 (NIAID, 2016)

- Purpose: 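Regulators of Tlr4 signalling leading to Tnf-alpha expression in macrophages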 (primary screen)
- Cell system: RAW264.7 G9 macrophages from mouse bearing reporters for p65 (GFP) and the Tnf promoter (mCherry)
- Reagent: siRNA pool against mouse genes, 100 nM
- Timing: 16 h of LPS stimulation, after 2 days of siRNA transfection
- Challenge: bacterial lipopolysaccharide (Salmonella minnesota R595), 10 ng/ml
- Measurement: 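Nuclear mCherry signal of the Tnf promoter reporter measured by imaging after background removal, scaled to each plate median and turned into robust z-scores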
- Direction: Tnf reporter robust z-score: higher = stronger Tnf promoter reporter signal after LPS
- Call rule: 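a well counts as active at a score of -1.3 or below (Tlr4 knock-down control median) or above 3 (raised signal); controls and wells holding fewer than 50 cells are excluded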
- Calls: active = Tnf reporter clearly lowered or raised; inactive = no clear change in Tnf reporter
The deposit covers about 17,000 reagents; below is an unselected part. About 1,110 of all reagents (6.6%) were called active. 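Active means lowered or raised reporter signal; replicate intensities are raw and not normalised per plate.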 Not all columns of the deposit are shown.

After knock-down of Fshb (follicle stimulating hormone beta), the screen gave Tnf reporter robust z-score -0.71; fewer than 50 cells in well enough cells in well; inactive.
With knock-down of Agap1 (ArfGAP with GTPase domain, ankyrin repeat and PH domain 1), the screen gave Tnf reporter robust z-score 1.71; fewer than 50 cells in well enough cells in well; inactive.
With knock-down of Fbn1 (fibrillin 1), the record shows Tnf reporter robust z-score -0.05; fewer than 50 cells in well enough cells in well; inactive.
For Clip1 (CAP-GLY domain containing linker protein 1), the entry reads Tnf reporter robust z-score 0.06; fewer than 50 cells in well enough cells in well; inactive.
After knock-down of Tma7 (translational machinery associated 7), the screen gave fewer than 50 cells in well fewer than 50 cells per well; well left out of calls; inactive.
Silencing of Ndufb11 (NADH:ubiquinone oxidoreductase subunit B11) gave: Tnf reporter robust z-score -0.36; fewer than 50 cells in well enough cells in well; inactive.
Depletion of Erfe (erythroferrone) gave: fewer than 50 cells in well fewer than 50 cells per well; well left out of calls; inactive.
Ikzf1 (IKAROS family zinc finger 1) showed Tnf reporter robust z-score -1.92; fewer than 50 cells in well enough cells in well; active.
Silencing of Zkscan1 (zinc finger with KRAB and SCAN domains 1) gave: Tnf reporter robust z-score -0.38; fewer than 50 cells in well enough cells in well; inactive.
For Haus2 (HAUS augmin-like complex, subunit 2), the entry reads fewer than 50 cells in well fewer than 50 cells per well; well left out of calls; inactive.
After knock-down of Acaa2 (acetyl-CoA acyltransferase 2) the results were Tnf reporter robust z-score 0.41; fewer than 50 cells in well enough cells in well; inactive.
For Bcl9 (B cell CLL/lymphoma 9), the values are Tnf reporter robust z-score 0.27; fewer than 50 cells in well enough cells in well; inactive.
4930503L19Rik (RIKEN cDNA 4930503L19 gene) showed fewer than 50 cells in well fewer than 50 cells per well; well left out of calls; inactive.
For Rad51d (RAD51 paralog D), the values are Tnf reporter robust z-score -0.3; fewer than 50 cells in well enough cells in well; inactive.
Silencing of Wars1 (tryptophanyl-tRNA synthetase1) came out at: Tnf reporter robust z-score -0.69; fewer than 50 cells in well enough cells in well; inactive.
With knock-down of Slc25a40, the record shows Tnf reporter robust z-score 0.61; fewer than 50 cells in well enough cells in well; inactive.
Against Faim (Fas apoptotic inhibitory molecule) the deposit lists Tnf reporter robust z-score 0.78; fewer than 50 cells in well enough cells in well; inactive.
With knock-down of Klhl5 (kelch-like 5), the record shows Tnf reporter robust z-score -0.07; fewer than 50 cells in well enough cells in well; inactive.
With knock-down of Or4f47 (olfactory receptor family 4 subfamily F member 47), the screen gave Tnf reporter robust z-score 1.27; fewer than 50 cells in well enough cells in well; inactive.
Against Csrp3 (cysteine and glycine-rich protein 3) the deposit lists Tnf reporter robust z-score 0.81; fewer than 50 cells in well enough cells in well; inactive.
For Flna (filamin, alpha) the deposit lists Tnf reporter robust z-score -0.84; fewer than 50 cells in well enough cells in well; inactive.
